Test results taken from publication PMC10759521.
These are yes or no findings as the source states them, for the method shown. Binding seen in cells or lysates may run through a third protein. Some results given as binding are weak or reduced against the parent protein; the word gives no strength.

Biological target: Tumor protein p53 (human (endogenous in A549 and SPC-A1)) (UniProt P04637)
Test: co-IP; A549 or SPC-A1 whole cell lysates, pre-cleared with Protein A/G PLUS-Agarose, immunoprecipitated with anti-p53 antibody (mock IgG as control), collected on Protein A/G PLUS-Agarose overnight at 4 °C, washed three times, western blot of endogenous proteins

binding: binds
B1: DDB1 and CUL4 associated factor 13 (protein, UniProt Q9NV06 1-445)
chain: MKVKMLSRNPDNYVRETKLDLQRVPRNYDPALHPFEVPREYIRALNATKLERVFAKPFLASLDGHRDGVNCLAKHPEKLATVLSGACDGEVRIWNLTQRNCIRTIQAHEGFVRGICTRFCGTSFFTVGDDKTVKQWKMDGPGYGDEEEPLHTILGKTVYTGIDHHWKEAVFATCGQQVDIWDEQRTNPICSMTWGFDSISSVKFNPIETFLLGSCASDRNIVLYDMRQATPLKKVILDMRTNTICWNPMEAFIFTAANEDYNLYTFDMRALDTPVMVHMDHVSAVLDVDYSPTGKEFVSASFDKSIRIFPVDKSRSREVYHTKRMQHVICVKWTSDSKYIMCGSDEMNIRLWKANASEKLGVLTSREKAAKDYNQKLKEKFQHYPHIKRIARHRHLPKSIYSQIQEQRIMKEARRRKEVNRIKHSKPGSVPLVSEKKKHVVAVVK
